Source: patent US20090011442A1, “TB diagnostics based on mycobacterium tuberculosis excretory secretory antigens and their specific immunoglobulins” (priority 2007, published 2009)
At least one compound was matched to its structure with a doubt left.

Test system: mycobacterial serine protease (Seva TB ES-31)
Type: biochemical, Mycobacterium tuberculosis H37Ra

How did the “% Inhibition of Serine protease” value turn out when CO[C@H]1/C=C/O[C@@]2(C)Oc3c(C)c(O)c4c(O)c(c(/C=N/N5CCN(C)CC5)c(O)c4c3C2=O)NC(=O)/C(C)=C\C=C\[C@H](C)[C@H](O)[C@@H](C)[C@@H](O)[C@@H](C)[C@H](OC(C)=O)[C@@H]1C [RMP, rifampicin] was run?
The value was 0%.
